Values are the deposited “Percent Effect”, in %. How 0% and 100% were set is not recorded. Most values in the screen are low, and negative values occur. Compounds were drawn at random from those tested, without regard to their results.

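Whole-cell growth test on Mycobacterium tuberculosis, read after 3 days in glucose-containing 7H9 medium; the read-out is not stated. Tested at 500 µM. The record gives no direction; compounds that gave an IC50 in retests scored well above the rest, so higher reads as more growth inhibition. Of about 18,000 compounds tested this way, about 1,400 (7.9%) reached 50% or more in at least one test.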

SMILES | percent effect
COCCNC(=O)c1cccnc1SC(F)F | 15.54%
NC(=O)c1ccc(CNC(=O)OCC(F)(F)F)cc1 | 32.15%
C[C@@H]1CN(C(=O)c2ccc(N)nc2)C[C@@]1(O)C1CC1 | 13.96%
Cn1nccc1CCC(=O)N1CCCCC1CN (stereo unspecified) | 7.236%
COC(=O)C(C)(C)CCN1CCC[C@@H]1CO | -4.673%
CCN(CC(=O)NC(C)C)Cc1nccn1CC | 10.56%
C=Cc1nnnn1-c1ccccc1 | 13.02%
COCCC1(CO)CCCN(CCS(C)(=O)=O)C1 (stereo unspecified) | 0.2612%
Nc1nc(NCCc2c[nH]cn2)cc(C2CC(N)C2)n1 (stereo unspecified) | 12.05%
N#Cc1ccc(S(=O)(=O)N2CCC[C@@H](N)C2)cc1Cl | 29.15%
COCCOC1CCN(c2cc(N)nc(C)n2)CC1 | 10.85%
CN(CC1CCOCC1)C(=O)CSc1nnc(N)s1 | 9.764%
CCC(=O)c1ccc(CN)cc1 | 34.06%
COCCNC(=O)NCCN1CCc2sccc2C1 | 3.867%
CN(C(=O)C(CN)c1ccccc1)c1cccc(F)c1 (stereo unspecified) | -6.957%
CCOc1ccccc1CNC(=O)C1CCN(C)CC1 | 13.29%
CCCOc1ccc(CN)cc1 | 23.15%
CCN(Cc1ccccc1OCCO)[C@H]1COC[C@@H]1O | 14.72%
CCc1cc(C(=O)NC(CO)Cc2ccccc2)[nH]n1 (stereo unspecified) | 40.84%
CCn1ccnc1CNc1ccn(CCCOC)n1 | 4.151%
CC(=O)Nc1nc(C)c(S(=O)(=O)N2CCCC2)s1 | -0.2343%
CNC(=O)c1ccc(NC(=O)c2ccc(C)cc2)cc1 | 16.14%
Nc1cccnc1NCc1cccnc1 | -115.5%
Cc1nc2n(c1C)CCN(Cc1ncc(Cl)n1C)C2 | 4.89%
CC1(C#N)CCCNC1 (stereo unspecified) | -10.27%
CC1CCCCN1C(=O)NC1CCC2(CC1)OCCO2 (stereo unspecified) | -2.337%
Cc1cc(CN(C)c2ncccc2F)no1 | 4.786%
O=C(Cn1ccc2ccccc21)N1CCCC1 | 56.53%
Cc1cnc(CNC(=O)c2cn3ccsc3n2)cn1 | 11.46%
CSc1cccc(-n2c(CCN)n[nH]c2=O)c1 | 15.36%
CCn1nc(C(C)C)cc1C(=O)N1CCSCC1 | 7.429%
Nc1nc2c(s1)COCC2 | 3.026%
OC1CCN(C2COC2)CC1 | 7.135%
CC(C)NC(=O)CNC(=O)CSc1cccs1 | -11.27%
CNC(C)(CO)c1ccccc1 (stereo unspecified) | 15.16%
C=C(C)CN(CC)C(=O)CN1CCN(C(C)=O)CC1 | -1.146%
Cc1cccn(Cc2nc(-c3ccccn3)no2)c1=O | 4.493%
Fc1cnc2[nH]ccc2c1 | -10.18%
CS(=O)(=O)NCc1ccnc(Oc2ccc(F)cc2)c1 | 55.38%
O=C(NCC1CCOC1)c1ccoc1C(F)(F)F (stereo unspecified) | 5.011%
CNCc1nncn1C | -3.679%
O=S(=O)(C1CCOC1)N1CCCCC1 (stereo unspecified) | -6.756%
NC(=O)c1cncnc1N | 3.468%
CSCC(CCO)Nc1cc(C#N)c2ccccc2n1 (stereo unspecified) | -6.82%
COc1ccnc2c1CCCC2N (stereo unspecified) | 26.51%
N[C@@H]1CC[C@@H]1NC(=O)c1scc2c1OCCO2 | 18.78%
CC(Cc1ccccc1F)NC1(C(N)=O)CC1 (stereo unspecified) | 18.55%
COc1ccc(OCC(=O)NCCN2CCCC2)cc1 | 17.84%
COCCCNC(=O)c1coc(Br)c1 | 62.93%
COc1cc(CNC(=O)C2CCCCN2)ccc1C (stereo unspecified) | 25.53%
CN1CCC(OCCCNC(=O)c2ccc[nH]2)CC1 | -5.498%
CCN1CCN(CCOc2ccc(C#N)cc2)CC1 | -12.48%
N[C@@H]1c2ccccc2C[C@@H]1O | 13.31%
CN(C)C(=O)CN(CC(F)(F)F)C(=O)C1CCCCC1 | -0.03147%
CCCS(=O)(=O)Nc1cccc2c1CCN2C | 31.11%
CCC(=O)NC1CCCc2nc(N(C)C)ncc21 (stereo unspecified) | -11.27%
COCCC(=O)Nc1ccc(OCC(F)(F)F)nc1 | 39.96%
CN(C)c1nc(CN)cs1 | 27.31%
CC(C)C(=O)N(C)CCC(N)C(C)C (stereo unspecified) | 0.02861%
CC(=O)N1CCN(Cc2cc(Br)c3c(c2)OCO3)CC1 | 57.89%
CCC1CCCN(Cc2nc(C)no2)C1 (stereo unspecified) | 28.06%
CCOc1cccc(CCNC(=O)N(C)C(C)C)n1 | 44.42%
CCC1CN(C(=O)c2c(C)nsc2NC)CCO1 (stereo unspecified) | 2.936%
O=C(Nc1ccc(N2CCOCC2)cc1)C1CCCO1 (stereo unspecified) | -15.08%
Cc1n[nH]c(C)c1S(=O)(=O)N1CCC2(CCNCC2)C1 | 12.04%
Cc1ccc(C)c(C(=O)N2CCC(N)C2)c1 (stereo unspecified) | 0.4636%
Cc1nn(C)c(Cl)c1C(=O)N1CCN(C2CC2)CC1 | -2.13%
COCC(=O)NCCS(=O)(=O)c1ccc(Br)cc1 | -9.263%
CCOCCN1CCN(CC(=O)NCCC#N)CC1 | 7.217%
CC(=O)Nc1c[nH]nc1C1CCCNC1 (stereo unspecified) | -7.891%
Cn1nnnc1SCC(=O)Nc1cc(Cl)ccc1C#N | 7.832%
NC(=O)CC1CCN(C(=O)Cc2ccc(Cl)cc2)CC1 | 51.56%
CCNC(=O)c1ccc(=O)n(Cc2ccccc2)n1 | 21.87%
CCn1nccc1CN1CC(O)(CC#N)C1 | 3.979%
Clc1cnn(C2CCNCC2)c1 | 9.395%
CCOC(C(=O)N(C)CC(N)=O)c1ccccc1 (stereo unspecified) | 53.51%
Nc1nnc2n1CCCC2 | -8.777%
Cc1nc2ncnn2c(N2CCOCC2)c1C | 1.534%
O=C1c2ccc(F)cc2C(=O)N1Cc1ccno1 | -10.86%
NCc1cn2cc(Cl)ccc2n1 | 15.45%

Once more, the final 8:

SMILES	percent effect
CCNC(=O)c1ccc(=O)n(Cc2ccccc2)n1	21.87%
CCn1nccc1CN1CC(O)(CC#N)C1	3.979%
Clc1cnn(C2CCNCC2)c1	9.395%
CCOC(C(=O)N(C)CC(N)=O)c1ccccc1 (stereo unspecified)	53.51%
Nc1nnc2n1CCCC2	-8.777%
Cc1nc2ncnn2c(N2CCOCC2)c1C	1.534%
O=C1c2ccc(F)cc2C(=O)N1Cc1ccno1	-10.86%
NCc1cn2cc(Cl)ccc2n1	15.45%

Data taken from ChEMBL document CHEMBL3988442, “University of Dundee, Small-Polar-MMV Screening Library” (2021).